# Assay results reported in PubChem BioAssay AID2685 (National Center for Advancing Translational Sciences (NCATS), 2010).
# The other results are listed elsewhere or left out. These are further read-outs of the screen, such as a control signal, another cell line or another target. No call is given for them. Most of these compounds were active or inconclusive in the main read-out, so they are no random draw. The note in brackets gives the kind of curve behind each potency; many fits are weak.
# Assay: qHTS Assay for Lipid Storage Modulators in Drosophila S3 Cells;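 for cell number change: cells counted by Cell Tracker Red CMTPX staining in the red channel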
# Settings: BODIPY lipid droplet fluorescence, 18-24 h; for cell number change: measured here: cell count max response, cells fed with added oleic acid
# Procedure, shortened: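 Drosophila S3 cells loaded with oleic acid (400 uM, as added) and compounds at several concentrations; lipid droplets imaged by 488-nm laser-scanning cytometry, 500–530 nm intensity and object ratio to cell channel. Percent activity normalized to 20 uM Triacsin C.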
# [1] = measured here: lipid fluorescence (Fed channel) AC50, cells fed with added oleic acid
# [2] = measured here: cell number channel AC50, cells fed with added oleic acid
SMILES,cell number change,AC50 [1],AC50 [2]
CC1=C(C(N)=O)C(c2ccccn2)n2nc(SCc3ccccc3Cl)nc2N1 (centres undefined),-18.6%,"146 nM [falling, full curve, poor fit]",–
COc1ccc(CCNC(=O)Cc2cc(OC)c(OC)cc2[N+](=O)[O-])cc1OC,22.8%,"32600 nM [rising, partial curve, poor fit]",–
CSc1nc(Cl)c(C#N)c(-c2ccc(C)cc2)n1,-14.3%,–,"73.1 nM [falling, full curve, poor fit]"
Cc1ccc(-n2cccc2/C=C2\C(=N)N3N=C(C(C)C)SC3=NC2=O)cc1,–,"651 nM [falling, full curve]",–
COc1cc(/C=C/C(=O)N2CCOCC2)ccc1OCc1ccccc1,13.6%,–,–
COc1cccc(C(=O)NC(=S)Nc2ccc(N3CCCC3)cc2)c1,-25.3%,"820 nM [falling, full curve, poor fit]",–
COc1ccc(CNC(=O)C(=O)NCCC2CCCCN2S(=O)(=O)c2ccc(C)cc2)cc1 (centres undefined),-33.1%,"3660 nM [falling, partial curve]","13000 nM [falling, single point]"
O=C(c1ccco1)N1CCN(C(=O)C2(S(=O)(=O)c3ccc(Cl)cc3)CC2)CC1,–,–,"2310 nM [falling, partial curve]"
CCn1cc(CNC(=O)C2CCC(=O)N(C3CCCCCC3)C2)cn1 (centres undefined),14.7%,"8200 nM [rising, partial curve]",–
CC12CCC(C(=O)NCc3ccccc3Cl)(CC1=O)C2(C)C (centres undefined),128%,–,–
CCc1ccc(NC(=O)Cn2c(SC)nc3ccccc32)cc1,-12.4%,"6510 nM [rising, single point]",–
Cc1ccc(Cl)cc1N1CCN(C(=O)c2cccc3c(=O)c(C)c(-c4ccccc4)oc23)CC1,–,"8200 nM [falling, partial curve]",–
O=C(c1ccccc1)c1nc[nH]c1C(=O)Nc1ccccc1,–,–,"6510 nM [rising, single point]"
COC(=O)c1ccc(C)c(NS(=O)(=O)c2ccc(NC(C)=O)cc2)c1,0.257%,"92 nM [rising, full curve, poor fit]",–
CC(Sc1cccc[n+]1[O-])C(=O)Nc1ccc(Oc2ccccc2)cc1 (centres undefined),-41%,"794 nM [falling, full curve, poor fit]","251 nM [falling, full curve, poor fit]"
CC12c3ccccc3C(c3ccccc31)C1C(=O)N(c3ccncc3)C(=O)C12 (centres undefined),-18.8%,"13000 nM [falling, partial curve]",–
Cc1nc(Nc2ccccc2Cl)sc1C(=O)Nc1ccccc1,-23.9%,"18400 nM [falling, single point]",–
O=C(NC(=S)Nc1cc([N+](=O)[O-])ccc1O)c1cccnc1,38.4%,–,"29100 nM [rising, single point]"
Cc1c(/C=N/NC(=O)C(NC(=O)c2ccc3c(c2)OCO3)C(C)C)c2ccccc2n1C (centres undefined),19.2%,"5.17 nM [rising, full curve, poor fit]",–

SMILES,cell number change,AC50 [1],AC50 [2]
N#C/C(=C(/O)c1ccccc1F)c1nc2cc(C(F)(F)F)ccc2s1,-19.4%,"2910 nM [falling, full curve]","2590 nM [falling, single point]"
CC(=O)N1CN(S(=O)(=O)c2ccc(C)cc2)CC1C (centres undefined),-79.7%,"29100 nM [falling, single point]","18400 nM [falling, single point]"
Cc1c(C(=O)O)[nH]c2c1C(=O)CC(c1ccccc1)C2 (centres undefined),-10.7%,–,–
Cc1nc(-c2ccccc2)sc1C(=O)CSc1ccccc1,–,"65.1 nM [rising, full curve]","164 nM [rising, partial curve]"
CCOC(=O)C1CCN(C(=O)CCNS(=O)(=O)c2ccc3c(c2)CCN3C(=O)CC)CC1,-4.96%,"5170 nM [falling, single point]","5170 nM [rising, single point]"
C/C(=N/NC(=O)CC(=O)N/N=C(\C)c1ccc([N+](=O)[O-])cc1)c1ccc([N+](=O)[O-])cc1,-0.748%,"82 nM [falling, full curve, poor fit]",–
COc1ccc(C2C(O)C(c3c[nH]c4ccccc34)=NN2C(=O)CCl)cc1 (centres undefined),1.26%,"206 nM [rising, single point]",–
O=C(Nc1ncc2c(n1)-c1ccccc1CC2)C1CC1,1.04%,–,–
COc1ccc(NC(=O)c2ccc(C#N)cc2)cc1NS(=O)(=O)c1ccc(F)cc1,23.3%,"4110 nM [rising, partial curve]",–
CCC(C)n1nccc1NC(=O)C(C)OC(=O)c1cc2ccccc2[nH]1 (centres undefined),-13.2%,"146 nM [rising, full curve, poor fit]",–
COCCCNC(=S)NCCCNc1nc2cc3c(cc2cc1C#N)OCO3,–,"3260 nM [rising, partial curve, poor fit]",–
Nc1nnnn1CC(=O)N/N=C/c1ccccn1,6.07%,–,–
CCOc1ccc([C@@H]2CC=C(C(=O)O)[C@H](c3cccc(Cl)c3)N2S(=O)(=O)c2ccc(C)cc2)cc1,–,"2910 nM [rising, full curve]",–
O=[N+]([O-])c1ccc(-c2nnc(CNC3CCCC3)o2)cc1,48.6%,"920 nM [rising, full curve]","1300 nM [rising, full curve]"
Cc1ccc(CNC(=O)c2cc3c(C)nc4ccccc4c3o2)cc1,–,"4610 nM [falling, single point]",–
Cc1ccccc1OC(C)C(=O)N1CCN(c2ccccn2)CC1 (centres undefined),24.6%,"4610 nM [rising, full curve]","6510 nM [rising, partial curve]"
c1coc(-c2nnc(SCc3nc4ccccc4[nH]3)o2)c1,-8.71%,"2060 nM [rising, partial curve, poor fit]",–
CCOC(=O)N1CCC(N2CC34C=CC(O3)C(C(=O)Nc3ccc(OCC)cc3)C4C2=O)CC1 (centres undefined),14.8%,"206 nM [falling, full curve, poor fit]",–

# Part of the list above, with bars between the fields:
SMILES | cell number change | AC50 [1] | AC50 [2]
COc1ccc(C2C(O)C(c3c[nH]c4ccccc34)=NN2C(=O)CCl)cc1 (centres undefined) | 1.26% | 206 nM [rising, single point] | –
O=C(Nc1ncc2c(n1)-c1ccccc1CC2)C1CC1 | 1.04% | – | –
